Results taken from PubChem BioAssay.
Shown are results outside the selection of hits, which stands elsewhere. The source made the active and inactive calls. Rule as the data show it: active = inhibition above about 37%; inactive = the rest.

System: Hepatitis C virus NS3 helicase
Experiment: blockers of NS3h binding to ssDNA – biochemical, fluorescence polarization, LOPAC1280 library, primary screen (AID 687035)
Details: Purified HCV NS3 helicase, Cy5-dT15 ssDNA binding fluorescence polarization; stronger effect = higher value; concentration not given here

Oc1cc2c(c(Cl)c1O)CCNCC2c1ccccc1 (stereo unspecified)
inhibition: inactive: -4%
